PubChem BioAssay AID504834 (National Center for Advancing Translational Sciences (NCATS), 2011)
The campaign covered roughly 320,000 compounds. About 22,000 (6.9%) were called active. The shares of active, inactive and inconclusive entries below differ from those in the screen. Calls come from the whole dose curve; as a rule, active = well fitted inhibition curve with a large enough effect; inconclusive = small, poorly fitted or top-dose-only effect, or another doubt; inactive = no such curve, though single readings can be large or run the other way. Potencies beside an inconclusive call are fits to weak or partial responses and may not hold up.

Experiment: Primary qHTS for delayed death inhibitors of the malarial parasite plastid, 96 hour incubation
Conditions: P. falciparum luciferase reporter growth; series mostly up to 28.7 µM; activity change, negative = inhibition: at the top concentration
How it was run: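 P. falciparum expressing integrated firefly luciferase grown in erythrocytes (2% hematocrit, 0.05% parasitemia final) with compounds for 96 hours at 37 C, 5% CO2. Growth inhibition read as loss of luminescence after adding luciferase detection reagent.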
% is set by controls: 0 for no effect and ±100 for the full control effect; potency is the fitted concentration of half-maximal effect.

SMILES | Potency | activity change, negative = inhibition
O=C1SC(SCc2ccccc2Cl)=N/C1=C\c1ccc(C(=O)O)cc1 | inconclusive: 0.522 µM [inhibitor, full curve, poor fit] | –
Cc1ccc(C2=NN(Cc3nnc(-c4ccccc4)o3)C(=O)SC2)cc1 | inconclusive: 10.4 µM [inhibitor, single point] | –
O=C(c1ccc(Cl)c(S(=O)(=O)N2CCCCCC2)c1)N1CCOCC1 | inconclusive: 13.1 µM [inhibitor, single point] | –
Cc1oc(S(=O)(=O)N2CCCC2)cc1C(=O)Nc1ccc(F)cc1 | inconclusive: 0.0738 µM [inhibitor, full curve, poor fit] | –
CCOC(=O)CNC(=O)CSc1nc2sc(C)c(C)c2c(=O)n1C | inconclusive: 14.7 µM [inhibitor, single point] | –
COC1CCCN(C(=O)c2ccc(OC3CCN(CCc4ccccc4)CC3)cc2)C1 (stereo unspecified) | inconclusive: 2.62 µM [inhibitor, partial curve, poor fit] | –
COc1ccc(C(C(=O)NCC2CCCO2)N(Cc2ccc(F)cc2)C(=O)CNC(=O)c2ccco2)cc1OC (stereo unspecified) | inconclusive: 4.65 µM [inhibitor, partial curve] | –
c1ccc(-c2nc3c4ccccc4ccn3c2CN2CCCCC2)cc1 | inconclusive: 8.28 µM [inhibitor, partial curve] | –
O=C(Nc1ccnn1C1CCN(C(=O)c2ccccc2C(F)(F)F)CC1)C1CC1 | – | inactive: 1.94%
CCCCn1c(N)c(N(CCOC)C(=O)COC(=O)C(C)(C)Oc2ccc(Cl)cc2)c(=O)[nH]c1=O | – | inactive: 34.5%
O=S(=O)(O)c1nc2ccccc2n1Cc1ccccc1 | inconclusive: 0.0033 µM [inhibitor, full curve, poor fit] | –
Cc1ccc(-c2nnc(SCc3ccc(C#N)cc3)n2Cc2ccco2)cc1 | inconclusive: 13.1 µM [inhibitor, partial curve] | –
S=C(NCc1cccnc1)Nc1cccc(Cl)c1 | inconclusive: 11.7 µM [inhibitor, single point] | –
O=[N+]([O-])c1ccccc1/C=C/CN1CCC(O)CC1 | inconclusive: 18.5 µM [inhibitor, single point] | –
O=C(CCNC(=O)c1ccccc1)Nc1cccnc1 | – | inactive: 1.98%
COCCN(C(=O)CSc1nnc(-c2cccc(F)c2)n1N)c1c(N)n(Cc2ccccc2)c(=O)[nH]c1=O | – | inactive: -21.5%
COc1ccc(NC(=O)C/C(C)=N/NC(=O)C(=O)Nc2cccc(Cl)c2C)c(OC)c1 | inconclusive: 18.5 µM [inhibitor, single point] | –
COCCNC(=O)Cn1cc(/C=C(\C#N)C(=O)NC2CCCC2)c2ccccc21 | active: 10.4 µM | –
CCN(C(=O)CN(C)Cc1cccc(Cl)c1Cl)c1c(N)n(Cc2ccccc2)c(=O)[nH]c1=O | inconclusive: 18.5 µM [inhibitor, single point] | –
c1ccc2c(c1)oc1c(NCC3CCCO3)ncnc12 (stereo unspecified) | – | inactive: 19%
Cc1ccccc1C(=O)NNC(=S)NC(=O)c1ccccc1 | inconclusive: 18.5 µM [inhibitor, single point] | –
CN(C(=O)c1ccccn1)c1nnc(-c2ccccn2)s1 | – | inactive: 0%
O=C(O)CCn1c(=S)n(CCC(=O)O)c2ccccc21 | inconclusive: 2.62 µM [inhibitor, full curve, poor fit] | –
O=C(COc1ccccc1F)NC12CC3CC(CC(C3)C1)C2 | inconclusive: 18.5 µM [inhibitor, single point] | –

SMILES | Potency | activity change, negative = inhibition
CCC(C)(C)n1nnnc1C(c1ccc(C)cc1)N1CCC(C)CC1 (stereo unspecified) | – | inactive: 145%
Cn1c(SCC(=O)c2ccccc2)nnc1-c1cccc(N)c1 | – | inactive: 2.65%
O=C(O)c1ccc(C(=O)c2ccc3c(c2)C(=O)N(CC2CCCO2)C3=O)cc1 (stereo unspecified) | inconclusive: 18.5 µM [inhibitor, single point] | –
S=C(NCCCN1CCOCC1)Nc1ccc(Cl)cc1 | inconclusive: 10.4 µM [inhibitor, single point] | –
O=C(CSc1ncn[nH]1)N1CCOCC1 | inconclusive: 0.37 µM [inhibitor, partial curve] | –
CCOC(=O)CCNC(=O)N1CCCC(N2CCN(c3ccc(OC)cc3)CC2)C1 (stereo unspecified) | active: 2.94 µM | –
CCCCC1=CC2=C(c3ccco3)C(=O)C(C)(OC(=O)c3ccc(OC)cc3)C(=O)C2=CN1Cc1ccc2c(c1)OCO2 (stereo unspecified) | inconclusive: 14.7 µM [inhibitor, single point] | –
COc1cccc2cc(-c3cc(=O)oc4ccc(O)cc34)oc12 | inconclusive: 10.4 µM [inhibitor, single point] | –
Cc1ccc2cc(CCNC(=O)c3c(-c4ccccc4Cl)noc3C)c(=O)[nH]c2c1 | inconclusive: 10.4 µM [inhibitor, single point] | –
NC(=S)N/N=C/c1c(O)ccc2ccccc12 | inconclusive: 0.262 µM [inhibitor, full curve, poor fit] | –
O=[N+]([O-])c1cccc(/C=N/Nc2cc(N3CCOCC3)ncn2)c1 | inconclusive: 1.04 µM [inhibitor, full curve, poor fit] | –
Nc1nc(N2C(=O)C3CC=CCC3C2=O)nn1-c1ccccc1 (stereo unspecified) | active: 2.94 µM | –
Nc1c2c(nc3c1CCC3)CCCC2 | active: 3.79 µM | –
CC(O)CNc1nc(Cl)c(C#N)s1 (stereo unspecified) | – | inactive: 0%
Cc1ccc(C(=O)OCCn2cc(C#N)c(=O)[nH]c2=O)cc1 | – | inactive: 22%
CCOC(=O)c1c(C)[nH]c(C)c1S(=O)(=O)NC(C)Cc1ccco1 (stereo unspecified) | inconclusive: 10.4 µM [inhibitor, partial curve] | –
COc1cc(C(=O)OCC(=O)NC(=O)C2CCCCC2)ccc1OC(F)F | – | inactive: 45.1%
CCOC(=O)c1cc2c(ccn2C)n1CC(=O)N1CCC(Cc2ccccc2)CC1 | inconclusive: 5.86 µM [inhibitor, partial curve, poor fit] | –
COc1nc(NC2CCCCC2)nc(N2CCCCCC2)n1 | inconclusive: 18.5 µM [inhibitor, single point] | –
O=C(NNc1ccccc1)C(CCO)C(=O)NNc1ccccc1 | inconclusive: 0.329 µM [inhibitor, partial curve, poor fit] | –
COc1ccc(CN2CCN(C(=O)c3ccco3)CC2)cc1OC | inconclusive: 3.7 µM [inhibitor, single point] | –
CCCc1cc(NCCCO)n2c(nc3ccccc32)c1C#N | active: 3.29 µM | –
COCCNC(=S)Nc1cc(S(=O)(=O)N2CCOCC2)ccc1N1CCCCC1 | inconclusive: 8.28 µM [inhibitor, partial curve, poor fit] | –

Entries of single compounds, looked up by structure:
`O=C1SC(SCc2ccccc2Cl)=N/C1=C\c1ccc(C(=O)O)cc1` in the list: Potency: inconclusive: 0.522 µM [inhibitor, full curve, poor fit]
`CCCCn1c(N)c(N(CCOC)C(=O)COC(=O)C(C)(C)Oc2ccc(Cl)cc2)c(=O)[nH]c1=O` in the list: activity change, negative = inhibition: inactive: 34.5%

The listing continues:

SMILES | Potency | activity change, negative = inhibition
Cc1cc(C(=O)OCC(=O)Nc2nc(-c3ccccc3)cs2)c(C)o1 | – | inactive: 9.22%
COc1ccc(CNC(=O)C(OC(=O)c2ccco2)c2ccccc2)cc1 (stereo unspecified) | – | inactive: 1.89%
COCCn1c(SCC(=O)NC2CC2)nnc1-c1ccc(Cl)cc1 | – | inactive: 17.6%
CC(=O)c1ccc(S(=O)(=O)N2CCC(Oc3ccc(-n4cnnn4)cc3)CC2)cc1 | – | inactive: -14.5%
Cc1ccc2c(cnn2C(=O)CCC(=O)N2CCCCC2C)c1 (stereo unspecified) | inconclusive: 16.5 µM [inhibitor, partial curve, poor fit] | –
CCn1c(SC(C)C)nnc1C1CCN(S(=O)(=O)c2ccc(OC)cc2)CC1 | inconclusive: 0.522 µM [inhibitor, full curve, poor fit] | –
COCCN(Cc1cc2c(C)cc(C)cc2nc1Cl)C(=O)c1ccccc1F | active: 1.85 µM | –
O=C(CSc1nnc(C2CC2)n1Cc1ccccc1)c1ccc(S(=O)(=O)N2CCOCC2)cc1 | inconclusive: 18.5 µM [inhibitor, single point] | –
O=C(Nc1nc(N2C(=O)c3ccccc3C2=O)n(-c2ccccc2)n1)c1ccccc1 | – | inactive: 17.1%
Cc1ccc(C(=O)NCC(=O)OC(C)C(=O)Nc2ccc(N3CCOCC3)cc2)s1 (stereo unspecified) | – | inactive: 15.5%
Cc1ccc(-n2[nH]c(=O)c(-c3ccccn3)c2C)cc1 | – | inactive: 7.1%
CC(C)NC(=O)C1CCN(C2CCN(Cc3ccc4cccc(F)c4n3)CC2)CC1 | – | inactive: 9.51%
C=C1CCC2C(C)(C)[C@H](O)CC[C@@]2(C)[C@@H]1COc1cc(=O)oc2ccccc12 (stereo partly specified) | active: 14.7 µM | –
CCN(CC)CCN(Cc1cc2ccc(C)c(C)c2[nH]c1=O)C(=S)NCc1ccco1 | inconclusive: 5.86 µM [inhibitor, partial curve] | –
CC(NCC(c1ccco1)N1CCCCC1)C(=O)NC1CCCC1 (stereo unspecified) | inconclusive: 18.5 µM [inhibitor, single point] | –
COc1ccc(OCC(=O)N2CCC(n3nccc3NC(=O)C3CC3)CC2)cc1 | inconclusive: 10.4 µM [inhibitor, single point] | –
COc1ccc(S(=O)(=O)N2CC3CCCN3c3ccc(C(F)(F)F)cc32)cc1 (stereo unspecified) | active: 13.1 µM | –
CCOC(=O)c1sc(N)c(C#N)c1CSc1nc2ccc(OCC)cc2[nH]1 | inconclusive: 11.7 µM [inhibitor, single point] | –
Nc1nc(SCC(=O)N2CCCCC2)[nH]c(=O)c1NC(=O)c1ccccc1F | inconclusive: 11.7 µM [inhibitor, single point] | –
Cc1ccc(C(=O)Nc2ncc(Cc3ccccc3)s2)o1 | – | inactive: -0.637%
Nc1c(O)ccc2c1C(=O)c1ccccc1C2=O | inconclusive: 18.5 µM [inhibitor, single point] | –
O=C(/C=C/c1ccc(S(=O)(=O)NCc2ccco2)cc1)NCc1cccc(Cl)c1 | inconclusive: 18.5 µM [inhibitor, single point] | –
Cc1cc(=O)oc2cc(OCC(=O)NCCc3nc4ccccc4[nH]3)ccc12 | inconclusive: 14.7 µM [inhibitor, single point] | –
